Assay results published in the supplement of paper PMC4635364.
Structures can show the parent of a compound that is named as a salt. Some of the results follow. This data set is noisy: repeats of one test often differ as much as different tests do.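 Cells: ReNCell VM human fetal ventral-midbrain neural progenitors, differentiated mitogen-free. Blinded raters compared doublecortin-stained (early neurons) or tyrosine hydroxylase-stained (dopaminergic neurons) images with untreated wells, where 0 means no change. After repeats and both raters were averaged, compounds scoring 2 or above became hits for retesting.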

What follows are molecules tested on ReNCell VM (assay: dopaminergic neuron differentiation score (TH+ cell fraction vs untreated, manual image score) (score (0 to 3)); higher = more TH+ dopaminergic neuron differentiation). Settings: library: Spectrum; 2 uM; 4 weeks; BDNF 10 ng/ml + GDNF 10 ng/ml.

Row | Structure (SMILES) | dopaminergic neuron differentiation score
1 | COc1cc(/C=C/C(=O)N2CCC=CC2=O)cc(OC)c1OC | inactive: 0
2 | C=C(C)[C@H]1CC=C(C)CC1 | inactive: 0
3 | CCN(CC)CCNC(=O)c1cc(S(C)(=O)=O)ccc1OC | inactive: 0
4 | COc1cc(C)c(C(=O)Oc2cc(C)c(C(=O)O)c(O)c2C)c(OC)c1C | inactive: 0
5 | CN(C)CCC=C1c2ccccc2C=Cc2ccccc21 | inactive: 1
6 | Cc1c(NC(C)C)c(=O)n(-c2ccccc2)n1C | inactive: 0
7 | CN(C)CCN(Cc1ccc(Cl)cc1)c1ccccn1 | inactive: 0
8 | Cc1nnc(NS(=O)(=O)c2ccc(N)cc2)s1 | inactive: 0
9 | Cn1c(=O)c2nc[nH]c2n(C)c1=O | inactive: 0
10 | COc1ccc(CN(CCN(C)C)c2ncccn2)cc1 | inactive: 0
11 | OCCN1CCN(CCCN2c3ccccc3Sc3ccc(C(F)(F)F)cc32)CC1 | inactive: 1
12 | COc1cc2ccc(=O)oc2cc1O | inactive: 0
13 | C=C(C)[C@H]1COc2cc3oc(=O)ccc3cc2O1 | inactive: 0
14 | CCOC(=O)c1c(C)cc(O)c(C=O)c1O | inactive: 0
15 | CC1CC(OC(=O)C(O)c2ccccc2)CC(C)(C)C1 (stereo unspecified) | inactive: 1
16 | C=COCC(F)(F)F | inactive: 0
17 | Nc1nc(F)nc2c1ncn2[C@@H]1O[C@H](COP(=O)(O)O)[C@@H](O)[C@@H]1O | inactive: 0
18 | N=C(N)NC(=N)NCCc1ccccc1 | inactive: 0
19 | COc1cccc2c1C(=O)c1c(O)c3c(c(O)c1C2=O)C[C@@](O)(C(=O)CO)C[C@@H]3O[C@H]1C[C@H](N)[C@H](O)[C@H](C)O1 | inactive: 0
20 | Nc1ccc(S(=O)(=O)Nc2ccc(Cl)nn2)cc1 | inactive: 0
21 | O=S(=O)(O)c1cc(I)c(O)c2ncccc12 | inactive: 0

Compounds listed so far that have a CF3 group (2):
Row | Structure (SMILES) | dopaminergic neuron differentiation score
11 | OCCN1CCN(CCCN2c3ccccc3Sc3ccc(C(F)(F)F)cc32)CC1 | inactive: 1
16 | C=COCC(F)(F)F | inactive: 0

Same assay, conditions: library: Tocriscreen; 2 uM; 4 weeks; BDNF 10 ng/ml + GDNF 10 ng/ml

Row | Structure (SMILES) | dopaminergic neuron differentiation score
22 | CCN(CC)CCCCN1c2ccccc2Oc2ccc(Cl)cc21 [10-DEBC hydrochloride] | inactive: 0
23 | NC(=O)CCCCn1ccc(NC(N)=NCC(F)(F)F)n1 | inactive: 0
24 | Clc1ccc(-c2nc3sccn3c2/C=N/OCc2ccc(Cl)c(Cl)c2)cc1 | inactive: 1
25 | CS(=O)(=O)c1ccc(-c2cc(Br)sc2-c2ccc(F)cc2)cc1 | inactive: 0
26 | CCn1c(=O)[nH]c2ccccc21 | inactive: 0
